Measurements taken from PubChem BioAssay AID624297 (National Center for Advancing Translational Sciences (NCATS), 2012).
The campaign covered roughly 340,000 compounds. About 6,200 (1.8%) were called active. The inconclusive results got no clear call from the source; some entries with a clear call stand among them for comparison. The call rests on the fitted dose curve; in most records, active means well fitted activation curve with a large enough effect; inconclusive means small, poorly fitted or top-dose-only effect; inactive means no such curve, though single readings can be large or run the other way. Where the call is inconclusive, the potency comes from a doubtful curve fit.

Experiment: A quantitative high throughput screen for small molecules that induce DNA re-replication in SW480 colon adenocarcinoma cells. Further: nearly all actives have a fitted effect of over 55% in size. On re-replication activation: % of control where 0% means no effect.
Details: Hoechst DNA content imaging, 48 h; re-replication activation: at 46.1 µM (top of the series) unless noted
Outline: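 Compounds, transferred as 23 nL by pin tool, were incubated with cells for 48 hr; DNA content per nucleus was then quantified by Hoechst staining and fluorescence plate imaging.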
Potency means the concentration at half of the fitted maximal effect.

Structure (SMILES) | re-replication activation | Potency
CC(=O)C(C(C)=O)c1c(Cl)c(O)c(O)c2c(C(=O)c3ccccc3)coc12 | inactive: -0.446% [at 9.22 µM] | –
O=C(CN1C(=O)NC2(CCCCC2)C1=O)NNC(=O)C1CC1 | – | inconclusive: 29.1 µM [activator, single point]
COc1ccc(NS(=O)(=O)c2cc(NC(=O)c3cnccn3)ccc2OC)cc1Br | – | inconclusive: 11.6 µM [activator, partial curve, poor fit]
CCOc1cc(NC(=O)C2CC2)c(OCC)cc1NC(=O)c1ccccc1OCC | – | inconclusive: 16.4 µM [activator, single point]
COc1cc2c(cc1NC(=O)CN(C)Cc1cccc(OC)c1OC)oc1ccccc12 | – | inconclusive: 20 µM [activator, single point]
COc1cccc(-n2ccnc2SCC(=O)Nc2ccccc2)c1 | – | inconclusive: 29.1 µM [activator, single point]
CCN(CC)c1ccc(NC(=O)COc2ccccc2C#N)cc1S(=O)(=O)Nc1ccc(OC)cc1 | – | inconclusive: 29.1 µM [activator, partial curve, poor fit]
CN(C(=O)CCc1nnc(-c2ccc(-c3ccccc3)cc2)o1)C1CCOCC1 | – | inactive
Cc1cc(C)n2nc(C(=O)OCC(=O)N(C)C3CCCCC3)nc2n1 | – | inconclusive: 32.6 µM [activator, single point]
O=S(=O)(c1ccc(F)cc1)N1CCN(C(=S)NC2CC2)CC1 | – | active: 0.58 µM
CCOC(=O)c1cnc2cc(-c3ccc(Cl)cc3)nn2c1N | – | inconclusive: 6.51 µM [activator, partial curve, poor fit]
O=S(=O)(CCSc1ccc(C(F)(F)F)cn1)c1ccc(Cl)cc1 | – | inconclusive: 11.6 µM [activator, single point]
N#Cc1c(N)n(CCNC(=O)c2ccc(Cl)cc2)c2nc3ccccc3nc12 | – | inconclusive: 29.1 µM [activator, single point]
O=C1[C@@H](Oc2ccccc2)[C@@H](c2ccncc2)N1c1ccccc1 | – | inconclusive: 20.6 µM [activator, single point]
Cc1csc(=Nc2c(C)n(C)n(-c3ccccc3)c2=O)n1Cc1ccccc1 | – | inactive
CN(Cc1ccco1)C(=O)C1CCC(=O)N1Cc1ccc(F)cc1 (stereo unspecified) | – | inactive
Cc1cccc(NC(=S)NC2CCN(Cc3ccccc3)CC2)c1C | – | inconclusive: 32.6 µM [activator, partial curve, poor fit]
CCCCCCc1cc2cc(C(=O)Nc3ccccc3OC)c(=O)oc2cc1O | – | inconclusive: 4.11 µM [activator, partial curve, poor fit]
Cc1c(CN2CC[C@@H](N3CCN(c4ccccn4)CC3)[C@H](O)C2)[nH]c2ccc(F)cc12 | – | inconclusive: 0.58 µM [activator, full curve]
CCn1cc(/C=C/C(=O)c2ccc(O)cc2)c(C)n1 | – | inactive
O=C(NCc1ccco1)c1ccc2[nH]c(=O)c(=O)[nH]c2c1 | – | inactive
Cc1ccc(S(=O)(=O)CCC(=O)Oc2ccc(-c3nnco3)cc2)cc1 | – | inactive

Structure (SMILES) | re-replication activation | Potency
O=C(COc1ccc2c(c1)oc(=O)c1ccccc12)N[C@@H](Cc1c[nH]c2ccccc12)C(=O)O | – | inactive
COC(=O)c1ccc(/C=C(\C#N)C(=O)NC(C)c2ccccc2)cc1 (stereo unspecified) | – | inconclusive: 16.4 µM [activator, single point]
Fc1ccc(CNC2CCN(Cc3ccccc3)CC2)cc1 | – | inactive
CNC(=O)COC(=O)/C=C/c1nc2ccccc2s1 | – | inconclusive: 0.146 µM [activator, full curve, poor fit]
COC(=O)c1ccc(/C=C/c2ccc3cccc(OC(C)=O)c3n2)cc1 | – | inconclusive: 20.6 µM [activator, single point]
CCOC(=O)c1c(C)[nH]c(C(=O)/C(C#N)=C/c2ccc(OCC)cc2)c1C | – | inconclusive: 13 µM [activator, partial curve, poor fit]
CCOC(=O)N1CCN(c2c(NCc3cccs3)c(=O)c2=O)CC1 | – | inconclusive: 18.4 µM [activator, single point]
COc1ccc(C(=O)Nc2ccccc2C(=O)NC(Cc2ccc(O)cc2)C(=O)NNC(=O)c2ccccc2Cl)cc1 (stereo unspecified) | inconclusive: 62% [activator] | –
CC(C)(C)c1ccccc1OCC(=O)Nc1ncn[nH]1 | – | inactive
COc1cc(NC(=O)c2cc([N+](=O)[O-])ccc2Br)ccc1NC(=O)c1ccco1 | – | inconclusive: 20.6 µM [activator, single point]
COc1ccc2c(c1)[nH]c1c(=O)n(/N=C/c3ccc(OC)c(CN4CCCCC4)c3)cnc12 | – | inconclusive: 0.461 µM [activator, full curve, poor fit]
CC1(NC(=O)CCc2nc3ccccc3c(=O)[nH]2)CCS(=O)(=O)C1 (stereo unspecified) | – | inconclusive: 18.4 µM [activator, single point]
Cc1ccccc1Nc1c(-c2ccc(N3CCOCC3)cc2)nc2ncccn12 | – | inactive
COc1ccccc1/C=N/NC(=O)c1cc2c(OC)c(OC)ccc2[nH]1 | inconclusive: 83.4% [activator] | –
O=C(CNC(=O)c1ccco1)NNC(=O)c1ccc(Br)cc1 | – | inactive
COc1cccc(CNC(=O)c2ccc(C)c(S(=O)(=O)N3CCCCC3)c2)c1 | – | inactive
Clc1ccc2c(N/N=C/c3cccnc3)ccnc2c1 | – | inconclusive: 29.1 µM [activator, single point]
COC(=O)c1cc2c(ccn2-c2ccc(F)cc2)n1Cc1cccc(OC)c1 | – | inconclusive: 20.6 µM [activator, partial curve, poor fit]
COc1ccc(-c2c3c(=O)n(C)c(=O)n(C)c3cn2Cc2ccccn2)cc1 | – | inconclusive: 29.1 µM [activator, single point]
Clc1ccc(-c2cn3nc4c(nc3n2)CCCC4)cc1 | – | inconclusive: 4.11 µM [activator, partial curve]
CCOC(=O)CNS(=O)(=O)c1cc(-c2nnc(Nc3ccc4c(c3)OCO4)c3ccccc23)ccc1C | – | inconclusive: 18.4 µM [activator, single point]
COc1ccc(NC(=O)c2ccc(-c3csc(C)n3)cc2)cc1 | – | inconclusive: 23.1 µM [activator, single point]

An excerpt from above in order of SMILES length, low to high:
Structure (SMILES) | re-replication activation | Potency
Clc1ccc(-c2cn3nc4c(nc3n2)CCCC4)cc1 | – | inconclusive: 4.11 µM [activator, partial curve]
Cc1ccccc1Nc1c(-c2ccc(N3CCOCC3)cc2)nc2ncccn12 | – | inactive
COc1cc(NC(=O)c2cc([N+](=O)[O-])ccc2Br)ccc1NC(=O)c1ccco1 | – | inconclusive: 20.6 µM [activator, single point]

Later entries.

Structure (SMILES) | re-replication activation | Potency
Cc1nc(SCC(=O)c2cc3ccccc3oc2=O)c(C#N)c(-c2ccccc2)c1C(=O)Nc1ccccc1 | – | active: 7.31 µM
Cc1ccc(C)c(S(=O)(=O)Nc2cccc(-n3cnnn3)c2)c1 | – | inconclusive: 18.4 µM [activator, partial curve, poor fit]
CN(C)CCSc1nc(N)c2c3c(sc2n1)COC(C)(C)C3 | – | inconclusive: 18.4 µM [activator, single point]
COc1ccccc1C1=NNC(=Nc2cccc(S(=O)(=O)N(C)C)c2)SC1 | – | inconclusive: 20.6 µM [activator, single point]
CCOC(=O)C1=C(c2ccccc2)NC(SC)=C(C#N)C1c1cccnc1 (stereo unspecified) | – | inconclusive: 18.4 µM [activator, single point]
CCNC(=O)c1c(C)[nH]c(C(=O)OCC)c1C | – | inconclusive: 15.8 µM [activator, partial curve, poor fit]
O=C(CN(Cc1cccs1)C(=O)CSc1nnc(COc2ccccc2)o1)NC1CCCC1 | – | inconclusive: 25.9 µM [activator, single point]
CCOc1ccc(/C=N/NC(=O)c2cc3c(OC)cccc3[nH]2)cc1 | – | inconclusive: 29.1 µM [activator, single point]
Cc1cnc(C(=O)Nc2ccc(C(C)C)cc2)cn1 | – | inconclusive: 29.1 µM [activator, single point]
O=C(CC(NS(=O)(=O)c1ccc(Cl)cc1)c1ccco1)N1CCc2ccccc21 (stereo unspecified) | – | inactive
COc1cc(/C=N/NC(=O)c2ccncc2)ccc1OCC(=O)Nc1cccc([N+](=O)[O-])c1 | – | inconclusive: 2.06 µM [activator, partial curve, poor fit]
COc1cccc(NC(=O)CN(C)C(=O)c2cc(-c3cccc(Br)c3)nc3ccccc23)c1 | – | inconclusive: 20.6 µM [activator, single point]
Cc1c(-c2cc(Br)ccc2O)nc2cc3c(cc2c1C)OCO3 | – | inconclusive: 16.4 µM [activator, single point]
COc1ccc(/C=C(\C#N)c2n[nH]c(Cn3cncn3)n2)cc1 | – | inconclusive: 23.1 µM [activator, single point]
CCCCN(C)CCNC(=O)c1cc2c(-c3cccc(OC)c3)nn(C)c2s1 | – | inconclusive: 29.1 µM [activator, single point]
CC(C)NCC(O)COC1CCC(C(C)(C)C)CC1 (stereo unspecified) | – | inconclusive: 29.1 µM [activator, single point]
CCN(CC)CCCN(Cc1cc2cc3c(cc2[nH]c1=O)OCO3)C(=S)Nc1ccccc1 | – | inconclusive: 29.1 µM [activator, single point]
CC(=O)c1sc(NC(=O)c2cccnc2Cl)nc1C | – | inconclusive: 23.1 µM [activator, partial curve, poor fit]
CCS(=O)(=O)c1ccc2oc(SCC(=O)Nc3ccc(OC)cc3)nc2c1 | – | inconclusive: 29.1 µM [activator, single point]
COc1ccc(CNCc2cccc3ccccc23)cc1 | – | inactive
COc1ccc(CCSc2nnc(C3CCCCC3)n2N)cc1 | – | inactive
Cc1cc(C(=O)COc2cccnc2[N+](=O)[O-])c(C)n1Cc1ccco1 | – | inconclusive: 29.1 µM [activator, single point]
